Data as given in article PMC8277574.
Results are given in words; binding and its absence hold for the method and conditions named. In cells and extracts the contact can be indirect. Some binding calls cover weakened binding; strength is not graded here. Tags and fused reporters may be left off the sequences shown.

Target: T1, MUSK JM region phosphopeptide (2), pY553, biotinylated
T1 sequence (peptide, phosphotyrosine p(Y) (Y553); biotin (end not stated)): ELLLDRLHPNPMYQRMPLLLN
Assay: pull-down; biotinylated peptides on streptavidin-agarose beads, incubated overnight at 4 °C with pre-cleared lysates of transfected HEK 293 cells in lysis buffer with 1% NP-40; blot for HA; only the target purified

B1: HA-tagged DOK7 (protein, UniProt Q18PE0 1-504)
chain: MTEAALVEGQVKLRDGKKWKSRWLVLRKPSPVADCLLMLVYKDKCERSKGLRERSSLTLEDICGLEPALPYEGLAHTLAIICLSQAVMLGFDSHEAMCAWDTRIRYALGEVHRFHVTVAPGTKLESGPATLHLCNDILVLARDIPPTVMGQWKLSDLRRYGAVPNGFIFEGGTRCGYWAGVFFLSSAEGEQMSFLFDCIVRGISPTKGPFGLRPVLPDPSSGGPSASEERVAQEALEALQLEKRLSLLSHSGRPGSGGDDRSLSSSSSEASHSDISASSRLTAWPEQSSSSAGTSQEGPGLVAAQGPGEAMLGASRPPLKPLRPRQLQEVGRQSSSDSGIATGSHSSYSGSFSSYAGSNLDVWRAGEEFGSLLSLPPGASAPEPRLCACPPGAAEYQVPTSLRHHYDTPRSLRQAPRDPSPASQGSSDHGSATDLGGQAPTGCPSSWLGARRRGQATEGPGSDAALPSPSPGESWEAGSPHAGPPPAFFLSCSICGGLKVKPPP
binding: binds
